# These are yes or no findings as the source states them, for the method shown. Some results given as binding are weak or reduced against the parent protein; the word gives no strength.
# Amino acid sequences for entries named in this document (tags omitted). Residues count along the entry.
# UniProt P00747, residues 99-459: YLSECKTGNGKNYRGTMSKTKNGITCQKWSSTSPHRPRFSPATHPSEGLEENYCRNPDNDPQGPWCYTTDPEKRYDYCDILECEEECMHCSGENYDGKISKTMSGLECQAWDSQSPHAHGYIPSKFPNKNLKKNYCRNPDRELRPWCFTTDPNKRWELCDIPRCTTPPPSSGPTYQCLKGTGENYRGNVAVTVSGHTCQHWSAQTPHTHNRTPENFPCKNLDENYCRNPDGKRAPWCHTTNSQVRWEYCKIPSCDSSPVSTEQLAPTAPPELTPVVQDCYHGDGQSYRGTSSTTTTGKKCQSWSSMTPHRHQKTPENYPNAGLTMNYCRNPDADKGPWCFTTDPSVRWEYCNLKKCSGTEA
# Target: angiostatin K1-4 (UniProt P00747)
# Assay: immunoprecipitation of angiostatin K1-4 after incubation with trypsinized subunit alpha
row,Binder,binding
1,TGTAEMSSILEER [Alpha peptide 1],binds
2,TSIAIDTIINQK [Alpha peptide 2],binds
3,AVDSLVPIGR [Alpha peptide 3],binds
